Assay results from article PMC10873339.
These are yes or no findings as the source states them, for the method shown. Binding seen in cells or lysates may run through a third protein. Some results given as binding are weak or reduced against the parent protein; the word gives no strength. Sequences can lack the tags named with a protein.

Sequences of proteins named here, by UniProt entry; tags and fusion partners are left off. Residues count along the entry.
UniProt P28799, residues 18-593: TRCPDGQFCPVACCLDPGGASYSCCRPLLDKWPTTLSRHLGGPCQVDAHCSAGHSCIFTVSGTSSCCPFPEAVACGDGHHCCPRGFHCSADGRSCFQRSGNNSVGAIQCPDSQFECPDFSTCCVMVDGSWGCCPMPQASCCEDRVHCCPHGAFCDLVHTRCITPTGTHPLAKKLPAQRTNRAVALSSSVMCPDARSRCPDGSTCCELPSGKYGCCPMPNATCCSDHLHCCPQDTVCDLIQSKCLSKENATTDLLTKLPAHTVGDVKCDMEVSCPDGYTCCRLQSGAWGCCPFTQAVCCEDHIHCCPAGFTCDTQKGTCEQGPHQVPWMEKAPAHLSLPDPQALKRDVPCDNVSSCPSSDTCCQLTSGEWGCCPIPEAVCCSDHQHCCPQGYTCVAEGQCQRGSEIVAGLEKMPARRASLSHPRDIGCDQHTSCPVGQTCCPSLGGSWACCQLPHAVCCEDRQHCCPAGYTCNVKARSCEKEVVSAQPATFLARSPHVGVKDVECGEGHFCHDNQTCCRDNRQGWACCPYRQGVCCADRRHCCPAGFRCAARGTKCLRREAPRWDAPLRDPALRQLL

Biological target: FLAG-PGRN (progranulin) (UniProt P28799)
Test: co-IP; HEK293T cells transfected with FLAG-PGRN and non-tagged human GBA; lysed in 50 mM Tris-HCl pH 7.5, 150 mM NaCl, 0.5% Triton X-100; supernatant incubated with anti-FLAG M2 Affinity Gel overnight at 4 °C; five washes with 0.1% Triton X-100 buffer; blots with anti-GCase and anti-FLAG

binding: binds
B1: non-tagged human GBA (beta-glucocerebrosidase, GCase) (enzyme, UniProt P04062 40-536)
chain: ARPCIPKSFGYSSVVCVCNATYCDSFDPPTFPALGTFSRYESTRSGRRMELSMGPIQANHTGTGLLLTLQPEQKFQKVKGFGGAMTDAAALNILALSPPAQNLLLKSYFSEEGIGYNIIRVPMASCDFSIRTYTYADTPDDFQLHNFSLPEEDTKLKIPLIHRALQLAQRPVSLLASPWTSPTWLKTNGAVNGKGSLKGQPGDIYHQTWARYFVKFLDAYAEHKLQFWAVTAENEPSAGLLSGYPFQCLGFTPEHQRDFIARDLGPTLANSTHHNVRLLMLDDQRLLLPHWAKVVLTDPEAAKYVHGIAVHWYLDFLAPAKATLGETHRLFPNTMLFASEACVGSKFWEQSVRLGSWDRGMQYSHSIITNLLYHVVGWTDWNLALNPEGGPNWVRNFVDSPIIVDITKDTFYKQPMFYHLGHFSKFIPEGSQRVGLVASQKNDLDAVALMHPDGSAVVVVLNRSSKDVPLTIKDPAVGFLETISPGYSIHTYLWRRQ
